Results: PMC6077975
Results are given in words; binding and its absence hold for the method and conditions named.

Molecular target: T1, full-length ABCB6/HMT-1 as split-ubiquitin bait (HMT-1::Cub) (C. elegans) (UniProt G5EFD4)
T1 sequence: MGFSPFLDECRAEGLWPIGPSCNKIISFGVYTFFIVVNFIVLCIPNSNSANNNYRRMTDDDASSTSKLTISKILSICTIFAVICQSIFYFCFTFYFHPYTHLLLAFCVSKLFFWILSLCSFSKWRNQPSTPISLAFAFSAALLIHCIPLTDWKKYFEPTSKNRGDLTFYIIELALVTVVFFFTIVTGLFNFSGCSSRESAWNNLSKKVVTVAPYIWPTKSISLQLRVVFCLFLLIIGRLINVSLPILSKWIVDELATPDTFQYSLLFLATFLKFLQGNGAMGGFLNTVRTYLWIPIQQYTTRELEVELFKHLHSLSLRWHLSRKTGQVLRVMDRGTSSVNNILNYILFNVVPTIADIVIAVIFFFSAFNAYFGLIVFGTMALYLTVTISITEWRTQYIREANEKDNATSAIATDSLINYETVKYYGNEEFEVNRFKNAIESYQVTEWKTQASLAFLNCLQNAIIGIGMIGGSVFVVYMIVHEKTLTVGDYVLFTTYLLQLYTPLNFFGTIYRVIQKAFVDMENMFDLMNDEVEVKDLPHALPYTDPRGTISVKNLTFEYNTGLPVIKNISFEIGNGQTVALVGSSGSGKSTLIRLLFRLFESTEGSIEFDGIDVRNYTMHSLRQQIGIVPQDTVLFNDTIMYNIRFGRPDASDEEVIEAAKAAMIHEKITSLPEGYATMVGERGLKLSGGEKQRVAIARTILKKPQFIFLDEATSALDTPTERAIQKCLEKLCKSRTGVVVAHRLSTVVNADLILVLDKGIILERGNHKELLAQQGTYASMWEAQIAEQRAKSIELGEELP
Experiment: two-hybrid; mating-based split-ubiquitin system (mbSUS) in yeast; CubPLV bait, NubG prey; growth on SC medium lacking adenine, histidine, leucine, tryptophan; β-galactosidase (X-gal) to confirm

B1: ABCB6/HMT-1^Δ43 as split-ubiquitin prey (ABCB6/HMT-1^Δ43::NubG) (domain or fragment, UniProt G5EFD4 1-758)
chain: MGFSPFLDECRAEGLWPIGPSCNKIISFGVYTFFIVVNFIVLCIPNSNSANNNYRRMTDDDASSTSKLTISKILSICTIFAVICQSIFYFCFTFYFHPYTHLLLAFCVSKLFFWILSLCSFSKWRNQPSTPISLAFAFSAALLIHCIPLTDWKKYFEPTSKNRGDLTFYIIELALVTVVFFFTIVTGLFNFSGCSSRESAWNNLSKKVVTVAPYIWPTKSISLQLRVVFCLFLLIIGRLINVSLPILSKWIVDELATPDTFQYSLLFLATFLKFLQGNGAMGGFLNTVRTYLWIPIQQYTTRELEVELFKHLHSLSLRWHLSRKTGQVLRVMDRGTSSVNNILNYILFNVVPTIADIVIAVIFFFSAFNAYFGLIVFGTMALYLTVTISITEWRTQYIREANEKDNATSAIATDSLINYETVKYYGNEEFEVNRFKNAIESYQVTEWKTQASLAFLNCLQNAIIGIGMIGGSVFVVYMIVHEKTLTVGDYVLFTTYLLQLYTPLNFFGTIYRVIQKAFVDMENMFDLMNDEVEVKDLPHALPYTDPRGTISVKNLTFEYNTGLPVIKNISFEIGNGQTVALVGSSGSGKSTLIRLLFRLFESTEGSIEFDGIDVRNYTMHSLRQQIGIVPQDTVLFNDTIMYNIRFGRPDASDEEVIEAAKAAMIHEKITSLPEGYATMVGERGLKLSGGEKQRVAIARTILKKPQFIFLDEATSALDTPTERAIQKCLEKLCKSRTGVVVAHRLSTVVNADLILVLD
- binding: no binding
